Test results published in the supplement of paper PMC4604168 (melanoma cell lines).
This is one part of the list. Single values are uncertain, as repeats are few or missing.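 Imaging used 1,536-well plates; nuclei positive for cleaved PARP by antibody were divided by total DNA-stained nuclei to yield the apoptosis fraction. Doses for screening kept most cells viable, and cell lines differ markedly in resting and induced cleaved-PARP levels.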

Columns and labels:
Test in all cases: cleaved PARP positive nuclei fraction relative to DMSO control; melanoma cells; higher = more apoptosis
Conditions in all cases: library dose: low library concentration; 72 h
[1] = tested on: WM115
[2] = tested on: WM1716
[3] = tested on: WM1745
[4] = tested on: WM3526
[5] = tested on: WM3619
[6] = tested on: WM451Lu

SMILES | cleaved PARP positive nuclei fraction [1] | cleaved PARP positive nuclei fraction [2] | cleaved PARP positive nuclei fraction [3] | cleaved PARP positive nuclei fraction [4] | cleaved PARP positive nuclei fraction [5] | cleaved PARP positive nuclei fraction [6]
Cc1cn(-c2cc(NC(=O)c3ccc(C)c(Nc4nccc(-c5cccnc5)n4)c3)cc(C(F)(F)F)c2)cn1 [nilotinib] + NC(=O)c1ccc(N(C(N)=O)c2c(F)cccc2F)nc1-c1ccc(F)cc1F [VX702] (first compound 0.2 µM, partner dose 0.4 µM) | 48.3% | 65.9% | 95.6% | 175% | 91.1% | 65.1%
O=c1[nH]nc(Sc2ncc([N+](=O)[O-])s2)n1-c1ccc2c(c1)OCCO2 + CNC(=O)c1cc(Oc2ccc(NC(=O)Nc3ccc(Cl)c(C(F)(F)F)c3)cc2)ccn1 [sorafenib] (first compound 0.2 µM, partner dose 0.4 µM) | 85.7% | 58.3% | 91.2% | 31.4% | 87.8% | 58%
Cc1cc(Nc2cc(N3CCN(C)CC3)nc(Sc3ccc(NC(=O)C4CC4)cc3)n2)n[nH]1 [Tozasertib] + COc1cc(Nc2ncc(F)c(Nc3ccc4c(n3)NC(=O)C(C)(C)O4)n2)cc(OC)c1OC [Tamatinib] (first compound 0.006 µM, partner dose 0.4 µM) | 104% | 42.8% | 226% | 63.3% | 231% | 94.3%
CCCCCCCCCCCCCCCCCCOP(=O)([O-])OC1CC[N+](C)(C)CC1 [Perifosine] + O=C(Nc1cccc(Cl)c1)Nc1ncc(CCNc2ncnc3ccsc23)s1 [SNS314] (first compound 0.4 µM, partner dose 0.0008 µM) | 260% | 69.5% | 109% | 129% | 106% | 291%
N#CC[C@H](C1CCCC1)n1cc(-c2ncnc3[nH]ccc23)cn1 [ruxolitinib] + COc1cc2c(Oc3ccc4[nH]c(C)cc4c3F)ncnc2cc1OCCCN1CCCC1 [cediranib] (first compound 1 µM, partner dose 0.4 µM) | 22.4% | 50% | 87.5% | 40.5% | 71.7% | 112%
O=C(/C=C/c1cccnc1)NCCCCC1CCN(C(=O)c2ccccc2)CC1 + CC1(C)CCC(c2ccc(Cl)cc2)=C(CN2CCN(c3ccc(C(=O)NS(=O)(=O)c4ccc(N[C@H](CCN5CCOCC5)CSc5ccccc5)c(S(=O)(=O)C(F)(F)F)c4)cc3)CC2)C1 [ABT263] (first compound 0.01 µM, partner dose 0.4 µM) | 449% | 200% | 515% | 64.8% | 185% | 496%
O=C(Nc1cc(C(F)(F)F)cc(C(F)(F)F)c1)c1cc(Cl)ccc1O + COc1ccc2c(c1)CCC1C2CCC2(C)C(NCCCCCCN3C(=O)C=CC3=O)CCC12 [U73122] (first compound 0.016 µM, partner dose 0.4 µM) | 50.3% | 85.7% | 81.4% | 70% | 75.6% | 212%
CC[C@]1(O)C[C@H]2CN(CCc3c([nH]c4ccccc34)[C@@](C(=O)OC)(c3cc4c(cc3OC)N(C=O)[C@H]3[C@@](O)(C(=O)OC)[C@H](OC(C)=O)[C@]5(CC)C=CCN6CC[C@]43[C@@H]65)C2)C1 [vincristine] + Cn1sc(=O)n(Cc2ccccc2)c1=O [TDZD-8] (first compound 0.0001 µM, partner dose 0.4 µM) | 274% | 122% | 116% | 119% | 133% | 69%
O=C(Nc1cc(C(F)(F)F)cc(C(F)(F)F)c1)c1cc(Cl)ccc1O + CN1CCN(c2ccc3nc(-c4c(N)c5c(F)cccc5[nH]c4=O)[nH]c3c2)CC1 [Dovitinib] (first compound 0.016 µM, partner dose 0.1 µM) | 105% | 44.2% | 99.4% | 39.8% | 93.4% | 42.1%
Cc1cn(-c2cc(NC(=O)c3ccc(C)c(Nc4nccc(-c5cccnc5)n4)c3)cc(C(F)(F)F)c2)cn1 [nilotinib] + Clc1ccc(Nc2nnc(Cc3ccncc3)c3ccccc23)cc1 [vatalanib] (first compound 0.2 µM, partner dose 2 µM) | 88.2% | 118% | 1090% | 124% | 99% | 28.2%
CCCCCCCCCCCCCCCCCCOP(=O)([O-])OC1CC[N+](C)(C)CC1 [Perifosine] + O=C(O)c1ccc(-c2c[nH]c3ncc(-c4ccccc4)cc23)cc1C1CCCC1 [GSK650394] (first compound 0.4 µM, partner dose 0.16 µM) | 92.2% | 150% | 96.8% | 35% | 108% | 49.5%
Cc1cc(Nc2cc(N3CCN(C)CC3)nc(Sc3ccc(NC(=O)C4CC4)cc3)n2)n[nH]1 [Tozasertib] + O=C(O)c1ccc2c(c1)nc(Nc1cccc(Cl)c1)c1ccncc12 [CX4945] (first compound 0.006 µM, partner dose 0.4 µM) | 118% | 39.5% | 105% | 100% | 103% | 43.3%
N#CC[C@H](C1CCCC1)n1cc(-c2ncnc3[nH]ccc23)cn1 [ruxolitinib] + C[C@]1(c2nc3c(C(N)=O)cccc3[nH]2)CCCN1 [Veliparib] (first compound 1 µM, partner dose 1.4 µM) | 103% | 402% | 107% | 64.5% | 94.8% | 73.2%
O=c1[nH]nc(Sc2ncc([N+](=O)[O-])s2)n1-c1ccc2c(c1)OCCO2 + Cn1cnc2c(F)c(Nc3ccc(Br)cc3Cl)c(C(=O)NOCCO)cc21 [selumetinib] (first compound 0.2 µM, partner dose 0.015 µM) | 48.2% | 74.8% | 105% | 96.8% | 142% | 43.3%
CC[C@]1(O)C[C@H]2CN(CCc3c([nH]c4ccccc34)[C@@](C(=O)OC)(c3cc4c(cc3OC)N(C=O)[C@H]3[C@@](O)(C(=O)OC)[C@H](OC(C)=O)[C@]5(CC)C=CCN6CC[C@]43[C@@H]65)C2)C1 [vincristine] + OCc1c[nH]c2ccccc12 [Indole-3-carbinol] (first compound 0.0001 µM, partner dose 0.8 µM) | 1210% | 116% | 119% | 109% | 206% | 81.9%
Cc1ccc(Nc2nccc(N(C)c3ccc4c(C)n(C)nc4c3)n2)cc1S(N)(=O)=O [Pazopanib] + NC(=O)Nc1cc(-c2cccc(F)c2)sc1C(=O)N[C@H]1CCCNC1 [AZD7762] (first compound 0.4 µM, partner dose 0.02 µM) | 85% | 107% | 131% | 67.4% | 178% | 46.7%
O=C(Nc1cc(C(F)(F)F)cc(C(F)(F)F)c1)c1cc(Cl)ccc1O + CO[C@H]1C[C@@H]2CC[C@@H](C)[C@@](O)(O2)C(=O)C(=O)N2CCCC[C@H]2C(=O)O[C@H]([C@H](C)C[C@@H]2CC[C@@H](OCCO)[C@H](OC)C2)CC(=O)[C@H](C)/C=C(\C)[C@@H](O)[C@@H](OC)C(=O)[C@H](C)C[C@H](C)/C=C/C=C/C=C/1C [everolimus] (first compound 0.016 µM, partner dose 0.02 µM) | 137% | 96.1% | 118% | 177% | 148% | 108%
CC[C@]1(O)C[C@H]2CN(CCc3c([nH]c4ccccc34)[C@@](C(=O)OC)(c3cc4c(cc3OC)N(C=O)[C@H]3[C@@](O)(C(=O)OC)[C@H](OC(C)=O)[C@]5(CC)C=CCN6CC[C@]43[C@@H]65)C2)C1 [vincristine] + C[C@@H]1CCN(C(=O)CC#N)C[C@@H]1N(C)c1ncnc2[nH]ccc12 [CP690550] (first compound 0.0001 µM, partner dose 1 µM) | 339% | 164% | 104% | 110% | 163% | 190%
O=C(/C=C/c1cccnc1)NCCCCC1CCN(C(=O)c2ccccc2)CC1 + CN1CCN(c2ccc3nc(-c4c(N)c5c(F)cccc5[nH]c4=O)[nH]c3c2)CC1 [Dovitinib] (first compound 0.01 µM, partner dose 0.1 µM) | 112% | 158% | 105% | 76.9% | 107% | 80.2%
Cc1cc(Nc2cc(N3CCN(C)CC3)nc(Sc3ccc(NC(=O)C4CC4)cc3)n2)n[nH]1 [Tozasertib] + Cc1cn(-c2cc(NC(=O)c3ccc(C)c(Nc4nccc(-c5cccnc5)n4)c3)cc(C(F)(F)F)c2)cn1 [nilotinib] (first compound 0.006 µM, partner dose 0.2 µM) | 47% | 152% | 124% | 103% | 77% | 41.1%
O=c1[nH]nc(Sc2ncc([N+](=O)[O-])s2)n1-c1ccc2c(c1)OCCO2 + Nc1cccc2c1CN(C1CCC(=O)NC1=O)C2=O [lenalidomide] (first compound 0.2 µM, partner dose 1 µM) | 147% | 67.6% | 89.5% | 79.8% | 93.3% | 86.3%
Cc1cn(-c2cc(NC(=O)c3ccc(C)c(Nc4nccc(-c5cccnc5)n4)c3)cc(C(F)(F)F)c2)cn1 [nilotinib] + CN(c1ncccc1CNc1nc(Nc2ccc3c(c2)CC(=O)N3)ncc1C(F)(F)F)S(C)(=O)=O [PF562271] (first compound 0.2 µM, partner dose 0.08 µM) | 111% | 411% | 146% | 80.1% | 71.5% | 95.2%
CC[C@]1(O)C[C@H]2CN(CCc3c([nH]c4ccccc34)[C@@](C(=O)OC)(c3cc4c(cc3OC)N(C=O)[C@H]3[C@@](O)(C(=O)OC)[C@H](OC(C)=O)[C@]5(CC)C=CCN6CC[C@]43[C@@H]65)C2)C1 [vincristine] + Cc1cn(-c2cc(NC(=O)c3ccc(C)c(Nc4nccc(-c5cccnc5)n4)c3)cc(C(F)(F)F)c2)cn1 [nilotinib] (first compound 0.0001 µM, partner dose 0.2 µM) | 1510% | 232% | 135% | 118% | 228% | 88.1%

Some of the entries so far, as tab-separated lines:
SMILES	cleaved PARP positive nuclei fraction [1]	cleaved PARP positive nuclei fraction [2]	cleaved PARP positive nuclei fraction [3]	cleaved PARP positive nuclei fraction [4]	cleaved PARP positive nuclei fraction [5]	cleaved PARP positive nuclei fraction [6]
O=c1[nH]nc(Sc2ncc([N+](=O)[O-])s2)n1-c1ccc2c(c1)OCCO2 + CNC(=O)c1cc(Oc2ccc(NC(=O)Nc3ccc(Cl)c(C(F)(F)F)c3)cc2)ccn1 [sorafenib] (first compound 0.2 µM, partner dose 0.4 µM)	85.7%	58.3%	91.2%	31.4%	87.8%	58%
O=C(/C=C/c1cccnc1)NCCCCC1CCN(C(=O)c2ccccc2)CC1 + CC1(C)CCC(c2ccc(Cl)cc2)=C(CN2CCN(c3ccc(C(=O)NS(=O)(=O)c4ccc(N[C@H](CCN5CCOCC5)CSc5ccccc5)c(S(=O)(=O)C(F)(F)F)c4)cc3)CC2)C1 [ABT263] (first compound 0.01 µM, partner dose 0.4 µM)	449%	200%	515%	64.8%	185%	496%
